According to PubChem BioAssay AID687031 (Broad Institute, 2013):
The campaign covered roughly 1,400 compounds. About 50 (4%) were called active.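 How the source made its calls: active means fitted curve reaches 30% CPE protection at or below the top valid dose, with every test run called active; inconclusive means test runs disagree, some active and some not; inactive means every test run inactive, including effects in the wrong direction.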 The list shows a part of the results. Results with a measured potency or affinity are listed apart.

experiment: antiviral rescue of DENV2-infected BHK-21 cells – cell-based, ATP luminescence, cherry-pick, dose response (AID 687031); details: BHK-21 DENV2 CPE protection, 5 d; at 19.5 µM (top of the series) unless noted;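 further: 0% = infected DMSO wells and 100% = uninfected cell wells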

CPE protection (higher = active), inactive:
O=C(Nc1ccccc1)c1ccccc1CSc1ccccc1 -6.7%
CC1CC2=C(C(=O)O1)C(c1ccc(Cl)cc1)Nc1ccccc1N2 (stereo unspecified) 24%
C=CCNc1nc(C(=O)OCC(=O)NCc2ccccc2OC)cs1 20.2%
N#CCc1ccc(NC(=O)c2cc(S(=O)(=O)N3CCOCC3)ccc2Cl)cc1 15.9%
COc1cc(O)c(C(CC(=O)N2CCCC(C)C2)c2cc(OC)c(OC)c(OC)c2)c(OC)c1 (stereo unspecified) 6.44%
O=C(COC(=O)c1ccc2c(c1)OCO2)NC1CCCCC1 -8.27%
CC1CCCN(CCOc2cccc(Oc3ccccc3)c2)C1 (stereo unspecified) -24.1%
O=C(NCC1CCCO1)c1ccccc1OCc1ccc(Cl)cc1 (stereo unspecified) -6.09%
COc1ccc(C2CC(c3ccccc3)=NN2S(=O)(=O)c2ccccc2)c(OC)c1 (stereo unspecified) 3.18%
c1ccc(-c2csc(-c3ccc(-c4csnn4)cc3)n2)cc1 -25%
Cc1cccc(OCCCN2CCC(C(O)(c3ccccc3)c3ccccc3)CC2)c1 -3.09%
CCC(=O)N1CC[C@@H]2[C@H]1c1cc(C#Cc3cccc(F)c3)ccc1N(C)[C@H]2CO -6.48%
CCOC(=O)C(=C1Nc2ccccc2N1)n1c(-c2cnccn2)nc2ccccc21 -5.6%
Cc1cccc(C)c1NC(=O)C1(C)CSCC(=O)N1Cc1cccc(C(F)(F)F)c1 (stereo unspecified) -22.9%
Cc1c(C(=O)N2CCCC2)oc2ccc(Br)cc12 -4.23%
COc1ccc(CCN2CC(C(=O)NCCc3cn[nH]c3)CCC2=O)cc1 (stereo unspecified) -10.8%
CCOC(=O)Cn1c(=O)oc2cc(S(=O)(=O)NC3CCCc4ccccc43)ccc21 (stereo unspecified) -9.97%
C[C@@H]1CCCCO[C@@H](CN(C)Cc2ccccc2)[C@@H](C)CN([C@H](C)CO)C(=O)c2cc(NC(=O)c3ccccc3)ccc2O1 -12.4% [at 21 µM]
CCN(c1ccccc1)S(=O)(=O)c1ccc(C(=O)N2CCN(c3ccccc3F)CC2)cc1 0.734%
CC(C)c1ccc(NC(=O)Nc2nc(C(N)CCc3ccccc3)cs2)cc1 (stereo unspecified) -17.6%
O=c1c2cc(Br)ccc2[nH]c(=S)n1Cc1ccccn1 -32.1% [at 10 µM]
O=C(Nc1ccc2c(c1)OCO2)c1cc(C2CCCCN2C(=O)OCCF)on1 (stereo unspecified) -1.38%
OC(c1ccccc1)(c1ccccc1)C1CCN(CCCOc2cccc(F)c2)CC1 -4.63%
COc1ccc(-c2c(-c3cc(OC)cc(OC)c3)n(C)c3ccc(Br)cc23)cc1 -4.38%
CCOc1ccc(N(CC(=O)NC2CCCCC2)C(=O)CNC(=O)c2cccs2)cc1 -6.55%
COCCNC(=O)c1cc2cc3ccc(OC)cc3nc2o1 16.9%
O=C(Nc1cccc(S(=O)(=O)N2CCCCCC2)c1)c1ccc2ccccc2n1 -22.6%
Cc1ccc(S(=O)(=O)N(C)C[C@H]2Oc3ccc(NS(=O)(=O)c4ccc(F)cc4)cc3C(=O)N([C@H](C)CO)C[C@@H]2C)cc1 -17% [at 21 µM]
CN1c2ccc(Br)cc2[C@H]2[C@H](CCN2C(=O)C2CCC2)[C@H]1CO 14.8% [at 21 µM]
COC(=O)CCc1cccc(CCC(=O)OC)c1 -3.04%
O=C(O)c1cccc(-c2csc(C(O)c3cccc(Cl)c3)n2)c1 (stereo unspecified) -5.26%
CN(CCC1CCCCO1)C(=O)CCc1nnc(CCc2ccccc2)o1 (stereo unspecified) -16%
COc1ccccc1NCC(=O)N/N=C(\C)c1ccc(Br)s1 18.7% [at 10 µM]
CCCCCC(=O)N1C[C@@H](n2cc(C3CC3)nn2)[C@H](O)C[C@@H]1c1ccccc1 -7.51%
O=S1(=O)CCO[C@H]2Cc3ccccc3[C@H]2N1Cc1ccc(Cl)cc1 16.6%
CNS(=O)(=O)c1cccc(C(=O)OCC(=O)N2c3ccccc3NC(=O)C2(C)C)c1 -7.28%
CC(=O)Nc1scc(C)c1-c1nc2ccccc2s1 25.4%
Cc1ccc(S(=O)(=O)c2nnn3c2nc(N2CCOCC2)c2ccccc23)cc1C 18.2%
COC(=O)C[C@@H]1OC[C@H](Cc2ccccc2)N1S(=O)(=O)c1ccc(C)cc1 9.14%
CCOC(=O)Cc1sc(N)nc1C 2.39%
COc1ccc(-c2csc(C(C)(O)c3ccc(F)c(F)c3)n2)cc1OC (stereo unspecified) -6.35%
CCc1nc2c(OCCc3cccc(OC)c3)cccn2c1N(C)C(=O)c1ccc(C)cc1 3.2%
CCC(=O)Nc1cc(C(=O)OCc2ccc(C(=O)Oc3ccccc3)cc2)ccc1C 10.7%
O=C(O)[C@]1(S(=O)(=O)c2ccccc2)C[C@@H]2ON=C(c3cccc(Br)c3)[C@@H]2C1 9.9%
Fc1ccc(-c2csc(-c3ccc(C4SCCS4)cc3)n2)cc1F 6.64%
Cc1noc(C)c1S(=O)(=O)Nc1ccc2c(c1)C(=O)N([C@@H](C)CO)C[C@@H](C)[C@@H](CN(C)C(=O)Nc1ccccc1)OCCCC[C@@H](C)O2 34% [at 10 µM]
C[C@@H]1CN([C@H](C)CO)C(=O)c2cc(NC(=O)c3ccncc3)ccc2O[C@@H](C)CCCCO[C@H]1CN(C)Cc1ccc(Cl)c(Cl)c1 12.8%
CCOc1ncccc1C(=O)NNC(=O)c1cccc(S(=O)(=O)Nc2ccccc2OC)c1 -1.9%
O=C(OCc1cn([C@H]2CN(C(=O)C3CCCCC3)[C@@H](c3ccccc3)C[C@@H]2O)nn1)c1ccccc1 -9.15%
COc1cc(OC)cc(C(=O)Nc2ccc(N3CCN(C(=O)c4cccs4)CC3)cc2)c1 17.4%
CCNC(=O)N(C)C[C@H]1N[C@@](CC)(C(=O)OC)[C@H]2C(=O)N(Cc3ccccc3)C(=O)[C@@H]12 -0.204%
CC1(C(=O)NCc2cccs2)Cc2c(-c3cccc(C(F)(F)F)c3)ccnc2O1 (stereo unspecified) 17%
COc1ccccc1S(=O)(=O)N(C)C[C@H]1Oc2cc(C#CCC(C)C)ccc2S(=O)(=O)N([C@@H](C)CO)C[C@@H]1C -24.4%
COc1cc(OC)cc(C(=O)NCc2ccc3c(c2)OCO3)c1 -6.35%
O=C(N[C@H](Cc1ccccc1)C(=O)NC1CCCCC1)[C@H]1O[C@@H](n2ccc(=O)[nH]c2=O)[C@H](O)[C@@H]1O 10.2%
CC1=C(C(=O)N(C)C)CC(CC(=O)NC2CCCCC2)C(=O)N1Cc1ccc(C(C)(C)C)cc1 (stereo unspecified) 17.7%
CS(=O)(=O)N1[C@@H]2c3ccc(-c4ccc(F)cc4)c(=O)n3C[C@H]1[C@H](CO)[C@H]2C(=O)N1CCOCC1 18%
CCOC(=O)N1C=CC=C[C@@H]2[C@@H](N3C(=O)c4ccccc4C3=O)C(=O)N21 -9.2%
CCN(CC)C(=O)C1CCN(Cc2ccc(OCc3ccccc3)cc2)CC1 26.5% [at 10 µM]
CC1(C(=O)NCc2ccccc2)CN(S(C)(=O)=O)CC(=O)N1CCc1ccc(O)cc1 (stereo unspecified) -2.07%
Cc1cc(OCC(=O)NC2CC(C)(C)NC(C)(C)C2)c(C)cc1Br -5.56%
O=C(O)CC(NC(=O)C12CC3CC(CC(C3)C1)C2)c1ccc(OC2CCCC2)cc1 (stereo unspecified) 16.6%
COc1cccc(C(O)c2nc(-c3cc(F)cc(F)c3)cs2)c1 (stereo unspecified) -22.6%
Cc1cc(Cl)c(OCCCNC2CCCC2)c(Br)c1 -1%
C[C@H]1CCCCO[C@H](CN(C)C(=O)Nc2ccc3c(c2)OCO3)[C@@H](C)CN([C@@H](C)CO)C(=O)c2cc(NC(=O)NC3CCCCC3)ccc2O1 -34.5%
COc1ccc(NC(=O)c2cc3ccccc3cc2O)cc1 16.6%
Fc1ccc(CCN2CCN=C2Nc2ccccc2)cc1 -3.47%
O=C(NCc1ccccc1)c1ccccc1 -3.58%
CCS(=O)(=O)Nc1ccc2c(c1)C(=O)N(C)C[C@H](OC)[C@@H](C)CN(C(=O)COC)[C@H](C)CO2 -1.35%
C[C@@H]1CCCCO[C@@H](CN(C)S(=O)(=O)c2ccc(F)cc2)[C@@H](C)CN([C@@H](C)CO)C(=O)c2cc(NC(=O)c3ccccc3)ccc2O1 -0.86%
C=CCOc1ccc(CNCc2cccnc2)cc1OCC -5.99%
CC(OC(=O)c1ccc2c(=O)n3c(nc2c1)CCC3)C(=O)NC1CCCCC1C (stereo unspecified) 20.4%
Cc1ccc(C(=O)NCC(=O)Nc2ccc(S(=O)(=O)Nc3cc(C)nc(C)n3)cc2)cc1 -0.439%
O=C(Nc1ncccc1O)c1ccc(S(=O)(=O)N2CCCCCC2)cc1 23.1%
COc1ccc(-c2cnc3c(NC(C)=O)cc(-c4ccccc4OC)cn23)cc1OC -20.4%
O=C(Oc1c(CN2CCOCC2)cc(Cl)c2cccnc12)c1ccccc1Br -11.5%
CC(NC(=O)CCc1ccccc1)c1ccc2c(c1)OCO2 (stereo unspecified) 1.74%
CCN1CCN(CCc2nc3cc(NC(=O)COc4ccc(Cl)cc4)ccc3n2C)CC1 -0.901%
COc1ccc(C)cc1NC(=O)C(c1ccccc1)N1CCN(CC(=O)N2CCOCC2)CC1 (stereo unspecified) -0.859%
Cc1ccccc1NS(=O)(=O)c1ccc(S(=O)(=O)N2CCCC2)cc1 2.34%
CC1(C(=O)Nc2cccc(OC(F)(F)F)c2)Cc2c(-c3cccc(C(N)=O)c3)ccnc2O1 (stereo unspecified) 8.12% [at 10 µM]
